Results reported in patent US20180140667A1.
No constants are given. Whether binding was seen depends on the method and setting. In cells and extracts the contact can be indirect. Some entries that bind do so weakly or less than the wild type. For some of these results: Sequences can lack the tags named with a protein.

Amino acid sequences for entries named in this document (tags omitted). A change or cut given only in a name is not applied to a line headed by its entry.
UniProt P19838: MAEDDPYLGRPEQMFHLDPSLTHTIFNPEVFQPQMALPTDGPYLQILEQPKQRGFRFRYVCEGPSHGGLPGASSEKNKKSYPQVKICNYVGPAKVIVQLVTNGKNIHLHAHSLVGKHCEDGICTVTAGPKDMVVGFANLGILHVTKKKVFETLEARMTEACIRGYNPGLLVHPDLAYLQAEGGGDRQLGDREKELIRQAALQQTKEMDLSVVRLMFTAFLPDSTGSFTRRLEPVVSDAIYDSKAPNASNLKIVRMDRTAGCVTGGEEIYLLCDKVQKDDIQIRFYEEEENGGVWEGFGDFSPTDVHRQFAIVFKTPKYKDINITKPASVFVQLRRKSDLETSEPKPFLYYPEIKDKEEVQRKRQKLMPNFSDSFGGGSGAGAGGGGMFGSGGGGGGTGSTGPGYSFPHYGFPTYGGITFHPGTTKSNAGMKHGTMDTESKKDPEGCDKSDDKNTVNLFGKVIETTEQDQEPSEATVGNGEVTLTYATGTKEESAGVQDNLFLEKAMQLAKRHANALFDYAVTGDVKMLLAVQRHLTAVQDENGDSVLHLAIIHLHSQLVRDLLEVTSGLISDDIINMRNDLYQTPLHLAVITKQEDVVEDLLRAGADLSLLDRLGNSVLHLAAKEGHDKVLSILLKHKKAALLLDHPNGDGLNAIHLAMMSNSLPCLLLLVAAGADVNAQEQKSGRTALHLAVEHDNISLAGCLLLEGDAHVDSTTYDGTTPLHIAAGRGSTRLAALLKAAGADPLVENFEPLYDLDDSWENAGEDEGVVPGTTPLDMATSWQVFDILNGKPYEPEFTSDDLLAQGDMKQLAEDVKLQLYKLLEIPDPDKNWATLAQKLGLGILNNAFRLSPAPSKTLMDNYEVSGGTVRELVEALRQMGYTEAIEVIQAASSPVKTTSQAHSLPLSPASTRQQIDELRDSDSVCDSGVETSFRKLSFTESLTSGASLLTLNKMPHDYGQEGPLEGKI

Experiments:
FLAG-p105 (human) [1] = biological target: FLAG-p105 (human) (UniProt P19838); assay: co-immunoprecipitation: anti-FLAG IP of FLAG-p105 from HEK293 lysate, anti-KPC1 blot (FIG. 2B)
[2] = biological target: FLAG-p105Δ574-803 (human) (UniProt P19838); assay: co-immunoprecipitation: anti-FLAG IP from HEK293 cells, anti-KPC1 blot (FIG. 3D legend)
[3] = biological target: FLAG-p105K594,625,630,637,639,640,684,740R (human) (UniProt P19838); assay: co-immunoprecipitation: anti-FLAG IP from HEK293 cells, anti-KPC1 blot (FIG. 10B)
FLAG-p105 (human) [4] = biological target: FLAG-p105 (human) (UniProt P19838); assay: co-immunoprecipitation: anti-FLAG IP from HeLa cells treated or not with TNFα (50 ng/ml, 30 min), anti-KPC1 blot (FIG. 8E legend)
[5] = biological target: FLAG-p105Δ574-803 (human) (UniProt P19838); assay: co-immunoprecipitation: anti-FLAG IP from HEK293 cells, anti-KPC1 blot (FIG. 3D)
[6] = biological target: endogenous p105 (HeLa cells) (human) (UniProt P19838); assay: co-immunoprecipitation from HeLa lysate with anti-p50, anti-KPC1 blot (FIG. 8B)
[7] = biological target: endogenous p105 (HeLa cells) (human) (UniProt P19838); assay: co-immunoprecipitation from HeLa lysate with anti-p50, anti-KPC1 blot (FIG. 8B legend)

Row | binding (FLAG-p105 (human) [1]) | binding [2] | binding [3] | binding (FLAG-p105 (human) [4]) | binding [5] | binding [6] | binding [7] | Binder
1 | binds | binds | binds | binds | binds | – | – | Myc-KPC1 (enzyme, not shown: small tags and cut ends) MASKGAGMSFSRKSYRLTSDAEKSRVTGIVQEKLLNDYLNRIFSSSEHAPPAATSRKPLNFQNLPEHLDQLLQVDNEEEESQGQVEGRLGPSTVVLDHTGGFEGLLLVDDDLLGVIGHSNFGTIRSTTCVYKGKWLYEVLISSQGLMQIGWCTISCRFNQEEGVGDTHNSYAYDGNRVRKWNVTTTNYGKAWAAGDIVSCLIDLDDGTLSFCLNGVSLGTAFENLSRGLGMAYFPAISLSFKESVAFNFGSRPLRYPVAGYRPLQDPPSADLVRAQRLLGCFRAVLSVELDPVEGRLLDKESSKWRLRGQPTVLLTLAHIFHHFAPLLRKVYLVEAVLMSFLLGIVEKGTPTQAQSVVHQVLDLLWLFMEDYEVQDCLKQLMMSLLRLYRFSPIVPDLGLQIHYLRLTIAILRHEKSRKFLLSNVLFDVLRSVVFFYIKSPLRVEEAGLQELIPTTWWPHCSSREGKESTEMKEETAEERLRRRAYERGCQRLRKRIEVVEELQVQILKLLLDNKDDNGGEASRYIFLTKFRKFLQENASGRGNMPMLCPPEYMVCFLHRLISALRYYWDEYKASNPHASFSEEAYIPPQVFYNGKVDYFDLQRLGGLLSHLRKTLKDDLASKANIVIDPLELQSTAMDDLDEDEEPAPAMAQRPMQALAVGGPLPLPRPGWLSSPTLGRANRFLSTAAVSLMTPRRPLSTSEKVKVRTLSVEQRTREDIEGSHWNEGLLLGRPPEEPEQPLTENSLLEVLDGAVMMYNLSVHQQLGKMVGVSDDVNEYAMALRDTEDKLRRCPKRRKDILAELTKSQKVFSEKLDHLSRRLAWVHATVYSQEKMLDIYWLLRVCLRTIEHGDRTGSLFAFMPEFYLSVAINSYSALKNYFGPVHSMEELPGYEETLTRLAAILAKHFADARIVGTDIRDSLMQALASYVCYPHSLRAVERIPEEQRIAMVRNLLAPYEQRPWAQTNWILVRLWRGCGFGYRYTRLPHLLKTKLEDANLPSLQKPCPSTLLQQHMADLLQQGPDVAPSFLNSVLNQLNWAFSEFIGMIQEIQQAAERLERNFVDSRQLKVCATCFDLSVSLLRVLEMTITLVPEIFLDWTRPTSEMLLRRLAQLLNQVLNRVTAERNLFDRVVTLRLPGLESVDHYPILVAVTGILVQLLVRGPASEREQATSVLLADPCFQLRSICYLLGQPEPPAPGTALPAPDRKRFSLQSYADYISADELAQVEQMLAHLTSASAQAAAASLPTSEEDLCPICYAHPISAVFQPCGHKSCKACINQHLMNNKDCFFCKTTIVSVEDWEKGANTSTTSSAA
2 | – | – | – | – | – | binds | binds | endogenous KPC1 (HeLa cells) (enzyme) ASKGAGMSFSRKSYRLTSDAEKSRVTGIVQEKLLNDYLNRIFSSSEHAPPAATSRKPLNFQNLPEHLDQLLQVDNEEEESQGQVEGRLGPSTVVLDHTGGFEGLLLVDDDLLGVIGHSNFGTIRSTTCVYKGKWLYEVLISSQGLMQIGWCTISCRFNQEEGVGDTHNSYAYDGNRVRKWNVTTTNYGKAWAAGDIVSCLIDLDDGTLSFCLNGVSLGTAFENLSRGLGMAYFPAISLSFKESVAFNFGSRPLRYPVAGYRPLQDPPSADLVRAQRLLGCFRAVLSVELDPVEGRLLDKESSKWRLRGQPTVLLTLAHIFHHFAPLLRKVYLVEAVLMSFLLGIVEKGTPTQAQSVVHQVLDLLWLFMEDYEVQDCLKQLMMSLLRLYRFSPIVPDLGLQIHYLRLTIAILRHEKSRKFLLSNVLFDVLRSVVFFYIKSPLRVEEAGLQELIPTTWWPHCSSREGKESTEMKEETAEERLRRRAYERGCQRLRKRIEVVEELQVQILKLLLDNKDDNGGEASRYIFLTKFRKFLQENASGRGNMPMLCPPEYMVCFLHRLISALRYYWDEYKASNPHASFSEEAYIPPQVFYNGKVDYFDLQRLGGLLSHLRKTLKDDLASKANIVIDPLELQSTAMDDLDEDEEPAPAMAQRPMQALAVGGPLPLPRPGWLSSPTLGRANRFLSTAAVSLMTPRRPLSTSEKVKVRTLSVEQRTREDIEGSHWNEGLLLGRPPEEPEQPLTENSLLEVLDGAVMMYNLSVHQQLGKMVGVSDDVNEYAMALRDTEDKLRRCPKRRKDILAELTKSQKVFSEKLDHLSRRLAWVHATVYSQEKMLDIYWLLRVCLRTIEHGDRTGSLFAFMPEFYLSVAINSYSALKNYFGPVHSMEELPGYEETLTRLAAILAKHFADARIVGTDIRDSLMQALASYVCYPHSLRAVERIPEEQRIAMVRNLLAPYEQRPWAQTNWILVRLWRGCGFGYRYTRLPHLLKTKLEDANLPSLQKPCPSTLLQQHMADLLQQGPDVAPSFLNSVLNQLNWAFSEFIGMIQEIQQAAERLERNFVDSRQLKVCATCFDLSVSLLRVLEMTITLVPEIFLDWTRPTSEMLLRRLAQLLNQVLNRVTAERNLFDRVVTLRLPGLESVDHYPILVAVTGILVQLLVRGPASEREQATSVLLADPCFQLRSICYLLGQPEPPAPGTALPAPDRKRFSLQSYADYISADELAQVEQMLAHLTSASAQAAAASLPTSEEDLCPICYAHPISAVFQPCGHKSCKACINQHLMNNKDCFFCKTTIVSVEDWEKGANTSTTSSAA
